The results in this text go back to PMC6029430.

Results are given in words; binding and its absence hold for the method and conditions named. Binding seen in cells or lysates may run through a third protein. Some entries that bind do so weakly or less than the wild type.

The target in this assay is bZIP63 (Arabidopsis) (UniProt B9DGI8). The assay is described as follows: split reporter; BiFC with YFP halves, co-bombardment of N. benthamiana leaves, confocal imaging 24-48 h after bombardment, DAPI counterstain.

B1: bZIP63 (protein, UniProt B9DGI8 1-314)
chain: MEKVFSDEEISGNHHWSVNGMTSLNRSASEWAFNRFIQESSAAADDGESTTACGVSVSSPPNVPVDSEEYRAFLKSKLNLACAAVAMKRGTFIKPQDTSGRSDNGGANESEQASLASSKATPMMSSAITSGSELSGDEEEADGETNMNPTNVKRVKRMLSNRESARRSRRRKQAHLSELETQVSQLRVENSKLMKGLTDVTQTFNDASVENRVLKANIETLRAKVKMAEETVKRLTGFNPMFHNMPQIVSTVSLPSETSNSPDTTSSQVTTPEIISSGNKGKALIGCKMNRTASMRRVESLEHLQKRIRSVGDQ
Regarding B1, the binding entry is listed as “binds”.
